Percent effect of library compounds

Values are the deposited “Percent Effect”, in %.
How 0% and 100% were set is not recorded. Most values in the screen are low, and negative values occur.
The compounds are a random part of those screened.

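Cell assay of Leishmania donovani living inside macrophages; the read-out is not stated. Compounds at 30 µM. The record gives no direction; compounds that gave an IC50 in retests scored well above the rest, so higher reads as stronger inhibition. Of about 69,000 compounds tested this way, about 1,000 (1.5%) reached 50% or more in at least one test.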

{"compound": "CCC1CCCCN1Cc1ncc(-c2ccc(OC)cc2)o1", "stereo": "centres undefined", "Percent Effect": -19.23}
{"compound": "CN(C)C(C(=O)NCC1(O)CCCCC1)c1c(F)cccc1F", "stereo": "centres undefined", "Percent Effect": -0.6833}
{"compound": "O=C(NC1(c2cccc(F)c2)CCOCC1)c1ccoc1", "Percent Effect": 23.58}
{"compound": "CN1N=C(C(=O)NCCc2csc(-c3ccccc3)n2)CCC1=O", "Percent Effect": 4.136}
{"compound": "O=C(O)C(F)(F)F.O=C(O)C(F)(F)F.O=C(O)C(F)(F)F.O=C(O)C(F)(F)F.c1ccc(CN2CCc3c(COCc4ccncc4)cncc3C2)nc1", "Percent Effect": -7.621}
{"compound": "COCCCN(CCOC)Cc1nc2c(cnn2C)c(=O)[nH]1", "Percent Effect": 18.14}
{"compound": "O=C1CC(c2cccs2)c2cnn(C3CCCC3)c2N1", "stereo": "centres undefined", "Percent Effect": -2.414}
{"compound": "O=C(CNC(=O)Nc1cccc(Cl)c1SC(F)F)NC1CC1", "Percent Effect": 25.99}
{"compound": "CC(=O)N1CC[C@@H](N2CCN(C)CC2)[C@@H]1Cc1ccccc1", "Percent Effect": 13.39}
{"compound": "Cc1nc(CN2CCCC2c2ccsc2)nc2ccccc12", "stereo": "centres undefined", "Percent Effect": 47.19}
{"compound": "[H][C@@]12CN(C3CCSCC3)C[C@]1([H])N(CCc1ccc(OC)cc1)C(=O)O2", "Percent Effect": 4.59}
{"compound": "COc1ccc(CN)c(OC(F)F)c1.Cl", "Percent Effect": -7.483}
{"compound": "Cc1nn(C)cc1C1=NS(=O)(=O)N(C)C(C(=O)Nc2ccc(Br)cc2)=C1", "Percent Effect": 8.12}
{"compound": "[H][C@]12CC[C@](O)(CC1)C(COC)N2S(=O)(=O)c1cn(C)cn1", "stereo": "some centres undefined", "Percent Effect": -3.132}
{"compound": "O=C(Cc1ccccc1F)N1CCC[C@@H]1Cn1c(=O)oc2ccccc21", "Percent Effect": -32.42}
{"compound": "c1cc(-c2ccc(CN3CCCC4(CCNC4)C3)s2)[nH]n1", "stereo": "centres undefined", "Percent Effect": 24.83}
{"compound": "COCC1CN(Cc2ccc(C)o2)Cc2nnn(C)c21.O=C(O)C(F)(F)F", "stereo": "centres undefined", "Percent Effect": -11.27}
{"compound": "CN1C[C@@H](NC(=O)C2CC2)C[C@H]1c1nc(-c2cnccn2)no1", "Percent Effect": 7.158}
{"compound": "CO[C@H]1CCN(C(=O)Cc2ccccn2)[C@H]1Cc1ccncc1", "Percent Effect": -0.6195}
{"compound": "Cc1noc(C)c1C(=O)N1CCC(n2cccn2)CC1", "Percent Effect": -13.88}
{"compound": "[H][C@@]12COC[C@]1(C(=O)NC(C)C)CN(Cc1cnn(C)c1)C2", "Percent Effect": -9.889}
{"compound": "CC(C)SCC(=O)N1CCc2c(nc(N(C)C)nc2N(C)C)C1", "Percent Effect": 7.439}
{"compound": "O=C(NCC1COCCO1)c1csc(Cc2ccccc2)n1", "stereo": "centres undefined", "Percent Effect": 39.66}
{"compound": "O=C(NCCN1CCOCC1)c1ccc(-c2ccc(F)cc2)nc1O", "Percent Effect": -17.64}
{"compound": "Cc1ccc(C)c(OCC(=O)NC2CCN(c3ccccn3)CC2)c1", "Percent Effect": 32.55}
{"compound": "C=C(C)CN(CC)Cc1nc(C2CC2)no1", "Percent Effect": -35.52}
{"compound": "CC(C)(C)NS(=O)(=O)c1ccccc1CNCc1cccc(O)c1", "Percent Effect": -10.98}
{"compound": "Cc1nc(C2CCCN2CC(=O)NCCc2ccsc2)no1", "stereo": "centres undefined", "Percent Effect": 18.05}
{"compound": "O=C(Cc1cn2ccsc2n1)N1CCCC(n2ccnc2)C1", "stereo": "centres undefined", "Percent Effect": 18.05}
{"compound": "CC1(C)CC(N2CCN(C3CCCC3)C(CCO)C2)CC(C)(C)C1", "stereo": "centres undefined", "Percent Effect": 19.58}
{"compound": "Cc1cc(C)cc(OCCN2CCn3c(C)nnc3C2)c1", "Percent Effect": 10.76}
{"compound": "O=C(O)C(F)(F)F.O=C(c1ccc(F)cc1)N1CCC2(CCCN2CC2CC2)CC1", "Percent Effect": 32.48}
{"compound": "CCc1nsc(N2CCN(CC(=O)Nc3c(C)n[nH]c3C)CC2)n1", "Percent Effect": -15.85}
{"compound": "CCOc1ccnc(N2CCN(C(=O)c3ccc(C#N)cc3)CC2)n1", "Percent Effect": 17.06}

For reference, 2 entries once more:

compound,Percent Effect
O=C(NCC1COCCO1)c1csc(Cc2ccccc2)n1 (centres undefined),39.66
COCC1CN(Cc2ccc(C)o2)Cc2nnn(C)c21.O=C(O)C(F)(F)F (centres undefined),-11.27

The values are deposited in ChEMBL (CHEMBL3988442, “University of Dundee, Small-Polar-MMV Screening Library” (2021)).